Assay results as given in publication PMC12188478, “Leveraging the Aminothiol-Specific Phosphorogenic Response of Iridium(III) Thioester Complexes for the Development of Intracellular Sensors and Cancer Phototherapeutics” (JACS Au, 2025).
Peptide text beside a SMILES is read from it. * marks the point of attachment. X1 = Cc1cc[n+]2c(c1)-c1cc(C(=O)*)cc[n+]1[Ir-3]213([c]2c(sc4ccccc24)-c2c4ccccc4cc[n+]21)[c]1c(sc2ccccc12)-c1c2ccccc2cc[n+]13; Isonicotinoyl(2-(4-Me-2-Py)) = Cc1ccnc(-c2cc(C(=O)*)ccn2)c1

Test system: MDA-MB-231 cells
Experiment: LSCM co-staining (intracellular localization)
Type: cell-based
Conditions: 10 μM, 16 h; for Pearson’s correlation coefficient (PCC) with LysoTracker Deep Red: LysoTracker Deep Red 100 nM, 1 h; for PCC with MitoTracker Green: MitoTracker Green 100 nM, 20 min

Row | SMILES | Pearson’s correlation coefficient (PCC) with LysoTracker Deep Red | PCC with MitoTracker Green
1 | CC[C@H](C)[C@H](NC(=O)[C@H](Cc1ccc(O)cc1)NC(=O)[C@H](CCSC)NC(=O)[C@H](CS)NC(=O)c1cc[n+]2c(c1)-c1cc(C)cc[n+]1[Ir-3]213([c]2c(sc4ccccc24)-c2c4ccccc4cc[n+]21)[c]1c(sc2ccccc12)-c1c2ccccc2cc[n+]13)C(=O)N[C@@H](CCC(=O)O)C(=O)N[C@@H](C)C(=O)N[C@@H](CC(C)C)C(=O)N[C@@H](CC(=O)O)C(=O)N[C@@H](CCCCN)C(=O)N[C@@H](Cc1ccc(O)cc1)C(=O)N[C@@H](C)C(=O)N[C@@H](CS)C(=O)O [Conjugate 3a-CMYI] (X1-CMYIEALDKYAC-OH; C-terminus assumed) | 0.81 | 0.28
2 | Cc1cc[n+]2c(c1)-c1cc(C(=O)N[C@@H](CS)C(=O)N[C@@H](Cc3ccc(O)cc3)C(=O)N[C@@H](CC(N)=O)C(=O)N[C@H](C(=O)N[C@@H](CC(N)=O)C(=O)N[C@@H](Cc3c[nH]cn3)C(=O)N[C@H](C(=O)N3CCC[C@H]3C(=O)N[C@@H](CC(C)C)C(=O)N[C@@H](CO)C(=O)N3CCC[C@H]3C(=O)N[C@@H](CCCCN)C(=O)N[C@@H](Cc3ccc(O)cc3)C(=O)O)C(C)C)[C@@H](C)O)cc[n+]1[Ir-3]213([c]2c(sc4ccccc24)-c2c4ccccc4cc[n+]21)[c]1c(sc2ccccc12)-c1c2ccccc2cc[n+]13 [Conjugate 3a-CYNT] (X1-CYNTNHVPLSPKY-OH; C-terminus assumed) | 0.69 | 0.36
3 | Cc1ccnc(-c2cc(C(=O)N[C@@H](CS)C(=O)N[C@@H](C)C(=O)N[C@@H](CO)C(=O)N3CCC[C@H]3C(=O)N[C@@H](CO)C(=O)NCC(=O)N[C@@H](C)C(=O)N[C@@H](CC(C)C)C(=O)N[C@@H](CCCNC(=N)N)C(=O)N[C@@H](CO)C(=O)N[C@@H](CS)C(=O)O)ccn2)c1 [Conjugate 3a-CASP] ({Isonicotinoyl(2-(4-Me-2-Py))}-CASPSGALRSC-OH; C-terminus assumed) | 0.72 | 0.46
